In brackets after ≈: the same amount, converted by molar mass. For some assays here: At least one read-out could not be matched to a standard name with certainty. For some assays here: For at least one compound, name, drawing or mass did not settle the structure.
Key:
[1] = test system: COL-2 (colon); assay: Cytotoxicity against cultured COL-2 cells (SRB); format: cell-based, human; conditions: Method A, sample dissolved in DMSO; three days incubation; listed as Betulinic Acid
Experimental: (§1) Cytotoxicity of the crude extracts and purified compounds was determined in a number of cultured human cancer cell lines. Table 1 sets forth the various types of cancer cells evaluated using Method A. The cells were cultured in appropriate media and under standard conditions. To maintain logarithmic growth, the media were changed 24 hours prior to cytotoxic assays. On the day of the assay, the cells were harvested by trypsinization, counted, diluted in media, and added to 96-well plates containing test compounds dissolved in DMSO. The final DMSO concentration was 0.05%.
(§2) In each of Methods A-C, the plates were incubated for three days. Following the incubation period, the cells were fixed and stained with sulforhodamine B (SRB) dye. The bound dye was liberated with Tris base, and the OD515 (optical density at 515 nm) was measured on an ELISA reader. The growth of the betulinic acid-treated cells was determined by the OD515 values, and the growth was compared to the OD515 values of […] control cells of Methods A-C. Dose response studies were performed to generate ED50 values. As used herein, the term OD515 is defined as optical density at 515 nm, and the term ED50 is defined as the concentration of a compound required to reduce cell number by 50%.

[2] = test system: KB (human oral epidermoid carcinoma); assay: Cytotoxicity against cultured KB cells (SRB); format: cell-based; conditions: Method A, sample dissolved in DMSO, three days incubation
Experimental: as §1, §2

[3] = test system: MEL-2 (melanoma); assay: Cytotoxicity against cultured MEL-2 cells (SRB); format: cell-based, human; conditions: Method A, sample dissolved in DMSO, three days incubation
Experimental: as §1, §2

[4] = test system: MEL-2 cells; assay: In vivo study, established MEL-2 melanomas in athymic mice, comparison with DTIC
[5] = test system: melanoma; conditions: single agent, melanoma patients; cited from earlier work

For C=C(C)[C@@H]1CC[C@]2(C(=O)O)CC[C@]3(C)[C@H](CC[C@@H]4[C@@]5(C)CC[C@H](O)C(C)(C)[C@@H]5CC[C@]43C)[C@@H]12 [Betulinic acid, 3β-hydroxy-lup-20 (29)ene-28-oic acid], the “ED50 COL-2” value [1] was 17.2 µg/mL (≈ 37.7 µM), the “ED50 KB” value [2] was >20 µg/mL and the “ED50 KB” value ([2]; listed as Betulinic Acid) was 19.2 µg/mL (≈ 42 µM). The “ED50 MEL-2” value [3] was 2.0 µg/mL (≈ 4.38 µM), the “ED50 MEL-2” value ([3]; listed as Betulinic Acid) was 1.9 µg/mL (≈ 4.16 µM) and the “duration of reduction in tumor growth following treatment termination” value ([4]; 250 mg/kg/dose IP every third day, six doses, from the day following tumor cell injection) was “prolonged reduction in tumor growth of up to three weeks”. The “tumor growth after termination of treatment” value ([4]; established tumors, 250 mg/kg/dose IP from day 13 to day 27) was “did not parallel that of the control (untreated) group even 14 days after the termination of treatment”.

In the case of CN(C)/N=N/c1[nH]cnc1C(N)=O [DTIC, 5-(3,3-Dimethyl-1-triazenyl)-1-H-imidazole-4-carboxamide], the overall response rate [5] is given as 24%.
